Data published in patent US10851084B2, “Piperazine derivatives as TRPML modulators” (CalyGene Biotechnology, Inc., priority 2016, dated 2020).
Some of these results come from one statement about several compounds together.

Tests used:
TRPML = experiment: Electrophysiology assays (mammalian whole-cell and endolysosomal patch-clamp); format: cell-based
GCaMP3-ML1 = experiment: Lysosomal Ca2+ imaging in Tet-On HEK-GCaMP3-ML1 cells; format: cell-based; conditions: calcium imaging assay

SMILES	potency relative to ML-SA1 (TRPML)	potency relative to ML-SA1 (GCaMP3-ML1)
Cc1ccc(S(=O)(=O)Nc2ccccc2N2CCN(c3ccc(Cl)cc3F)CC2)cc1 [Example 1, N-[2-[4-(4-Chloro-2-fluorophenyl)-1-piperazinyl]phenyl]-4-methylbenzenesulfonamide]	> 10 ×	> 10 ×
CN(C)S(=O)(=O)c1ccc(S(=O)(=O)Nc2ccccc2N2CCN(c3ccc(Cl)cc3F)CC2)cc1 [Example 8, N1-[2-[4-(4-Chloro-2-fluorophenyl)-1-piperazinyl]phenyl]-N4,N4-dimethylbenzene-1,4-disulfonamide]	> 10 ×	> 10 ×
